# Data from patent publication US10722599B2 (Yissum Research Development Company of the Hebrew …, priority 2015, dated 2020).
# Assay: general procedure: Fmoc solid-phase peptide synthesis; Rink Amide MBHA; HATU/HOBt
# [1] = whole synthesis, scale 0.3 mmol
substance,measurement,setting,value
DSG-Suc-Glu4,step yield,"purification step, on 246 mg crude portion",67%
same,crude mass,[1],369 mg
same,crude yield,[1],99%
